Test results: US20180320217A1, “METHODS FOR SAMPLING AND MEASURING ORAL LAVAGE PROTEINS” (The Procter & Gamble Company, priority 2017, published 2018)

Test system: peptides in gingival brush samples
Test: Protein and peptide profiling of gingival brush samples (LC-MS/MS), TABLE 23
Assay type: in vivo, human
Conditions: for Mean Cntl Bsl / Mean Cntl Wk3 / Mean TrtBsl / Mean TrtWk3: peptide abundance, gingival brush samples; for Mean Cntl Bsl / Mean Cntl Wk3 / Mean CntlBsl (peptide abundance) / Mean CntlWk3 (peptide abundance): control regimen; for Mean Cntl Bsl / Mean TrtBsl / Mean CntlBsl (peptide abundance) / Mean TrtBsl (peptide abundance): baseline; for Mean Cntl Wk3 / Mean TrtWk3 / Mean CntlWk3 (peptide abundance) / Mean TrtWk3 (peptide abundance): week 3; for Mean TrtBsl / Mean TrtWk3 / Mean TrtBsl (peptide abundance) / Mean TrtWk3 (peptide abundance): treatment regimen; for Mean CntlBsl (peptide abundance) / Mean CntlWk3 (peptide abundance) / Mean TrtBsl (peptide abundance) / Mean TrtWk3 (peptide abundance): pooled gingival brush samples, LC-MS/MS

| Substance | Mean Cntl Bsl | Mean Cntl Wk3 | Mean TrtBsl | Mean TrtWk3 | Mean CntlBsl (peptide abundance) | Mean CntlWk3 (peptide abundance) | Mean TrtBsl (peptide abundance) | Mean TrtWk3 (peptide abundance) |
| --- | --- | --- | --- | --- | --- | --- | --- | --- |
| FILA_HUMAN | 1241.5 | 1838.4 | 2441.8 | 903.3 |  |  |  |  |
| UB2V1_HUMAN |  |  |  |  | 3307.2 | 5580.5 | 2880.5 | 6110.0 |
| GRP75_HUMAN |  |  |  |  | 4681.5 | 6879.2 | 5750.4 | 8750.7 |
| CYC_HUMAN | 4147.6 | 6023.8 | 3784.4 | 7949.3 |  |  |  |  |
| HBA_HUMAN | 36452.9 | 95049.1 | 44975.0 | 340255.2 |  |  |  |  |
| 1433B_HUMAN | 6129.8 | 9357.7 | 6474.2 | 10149.8 |  |  |  |  |
| DSC2_HUMAN | 11058.5 | 17241.0 | 9081.8 | 15742.8 |  |  |  |  |
| MYH9_HUMAN | 771.1 | 1533.5 | 875.8 | 1574.2 |  |  |  |  |
| PPIB_HUMAN | 1483.2 | 2313.8 | 424.1 | 1663.6 |  |  |  |  |
| 1433E_HUMAN | 3802.4 | 6194.2 | 2804.5 | 5713.5 |  |  |  |  |
| 1433Z_HUMAN | 190255.8 | 292907.6 | 186750.4 | 326090.7 |  |  |  |  |
| CH10_HUMAN | 336.8 | 1115.3 | 623.0 | 1546.4 |  |  |  |  |
| PABP1_HUMAN | 42504.8 | 63429.8 | 56370.3 | 84565.0 |  |  |  |  |
| IDHC_HUMAN | 17771.7 | 13240.3 | 15482.9 | 17631.4 |  |  |  |  |
| CAH1_HUMAN | 3.4 | 192.1 | 8.7 | 910.7 |  |  |  |  |
| DESP_HUMAN | 7712.9 | 7628.8 | 5624.2 | 10059.4 |  |  |  |  |
| MYCB2_HUMAN | 9187.8 | 22635.4 | 8051.1 | 63943.8 |  |  |  |  |
| ECM29_HUMAN | 68098.3 | 31331.7 | 83586.4 | 29450.7 |  |  |  |  |
| GRP78_HUMAN | 7182.7 | 12846.8 | 9192.3 | 15225.7 |  |  |  |  |
| RD23B_HUMAN |  |  |  |  | 954.6 | 2401.6 | 2542.4 | 3945.9 |
| RECQ5_HUMAN | 3312.2 | 5483.6 | 3823.0 | 5623.5 |  |  |  |  |
| PSME1_HUMAN | 1309.6 | 2136.1 | 479.7 | 1982.2 |  |  |  |  |
| YBOX3_HUMAN |  |  |  |  | 9414.4 | 13549.8 | 8580.6 | 15477.7 |
| S10A9_HUMAN |  |  |  |  | 483769.1 | 545150.1 | 411383.9 | 648948.4 |
| TCTP_HUMAN |  |  |  |  | 1566.9 | 2422.8 | 1438.3 | 2941.9 |
| ANXA2_HUMAN | 25612.4 | 43936.0 | 39545.4 | 50535.7 |  |  |  |  |
